In patent US5428018A, “Phenylalanine analogs of bombesin” (Merrell Dow Pharmaceuticals Inc., priority 1994, dated 1995):
At least one peptide structure holds a part that was inferred or is arguable (an end, a ring closure or a residue). *1 amine or outer side, *2 acyl side, *3 side chain or, on linkers, in order; H or OH if unused. Where a SMILES comes first, the peptide text is derived from it. [ ]: non-standard residue; d: D form. X1 = CN(/C(=C\c1ccccc1)C(=O)[*:2])[*:1]

Protein sequences, listed by entry. Tags and fused reporters are not part of them. Lines headed by an entry give the natural chain unless they say otherwise; changes in a name come on top.
UniProt P21729: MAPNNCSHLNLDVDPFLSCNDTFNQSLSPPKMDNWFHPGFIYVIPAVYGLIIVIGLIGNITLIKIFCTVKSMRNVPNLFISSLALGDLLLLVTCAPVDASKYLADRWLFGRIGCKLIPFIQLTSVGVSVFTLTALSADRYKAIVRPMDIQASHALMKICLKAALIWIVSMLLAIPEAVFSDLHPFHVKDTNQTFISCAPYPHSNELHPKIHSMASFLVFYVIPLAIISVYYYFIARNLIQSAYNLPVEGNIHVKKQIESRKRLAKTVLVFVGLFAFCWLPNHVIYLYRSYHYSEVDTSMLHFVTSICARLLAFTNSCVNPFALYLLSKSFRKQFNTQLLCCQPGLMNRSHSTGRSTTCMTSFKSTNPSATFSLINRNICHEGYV

Target: T1, bombesin receptor (Mus musculus, UniProt P21729)
T1 construct: from tissue
Assay: Phosphatidylinositol (PI) turnover in chopped mouse pancreas
Type: cell-based
Procedure: Pept. […] Pept 32: 241-251, 1991.
Pancrea from mice were chopped at 350 μm with a tissue chopper and pooled in Krebs-Hepes buffer [118 mM NaCl, 1.2 mM K2 PO4, 4.7 mM KCl, 1.2 mM MgSO4, 1.0 mM CaCl2, 11.7 mM glucose, 20 mM Hepes (pH 7.4)]. The chopped tissue was washed once with oxygenated Krebs-Hepes,then incubated for 30 minutes in 37° C. oxygenated Krebs-Hepes buffer with fresh buffer after 15 minutes. The tissue was then incubated in this buffer containing 200 μCi of [^3 H]inositot at 37° C. for 1 hour. The tissue was then washed twice and incubated for another 30 minutes in oxygenated Krebs-Hepes (containing 10 mM Li+) at 37° C. and with fresh buffer change after 15 minutes. Portions of the tissue mass (approximately 10 mg per assay tube) were then placed in Li+ buffer with protease inhibitors (40 μg/ml bacitracin, 4 μg/ml leupeptin, 4 μg/ml chymostatin, 0.8 μg/ml thiorphan), 0.1% BSA, and 0.1-1000 μM peptide. After 60 minutes at room temperature, the phosphatidylinositol turnover was terminated by the addition of 940 μl chloroform:methanol (1:2), followed by 310 μl chloroform, followed by 310 μl water. Each tube was then vortexed three times for 5 seconds each time and then centrifuged at […] for 8 minutes to separate the phases. 50 μl of the bottom phase (chloroform) was withdrawn from each tube and placed in a counting vial, dried, and counted in scintillation fluid. 900 μl of the top (aqueous) phase was then mixed with 2.1 ml water and loaded onto a 0.5 ml Biorad AG-1×8 (formate) ion exchange column. […] The final (third) wash was collected and one ml was mixed with 14 ml of Bio-Safe or E-Colume scintillant and counted. The ratio of these counts (total inositol phosphates) to the corresponding organic phase counts (inositol incorporated into the tissue) was then calculated for each sample. […] The abilities of test compounds to stimulate phosphatidylinositol turnover were determined with the aid of a computer program.

COC(=O)/C(=C/c1ccccc1)N(C)C(=O)[C@H](CC(C)C)NC(=O)[C@H](Cc1c[nH]cn1)NC(=O)[C@@H](C)NC(=O)[C@@H](NC(=O)[C@H](C)NC(=O)[C@H](Cc1c[nH]c2ccccc12)NC(=O)[C@H](CCC(N)=O)NC(=O)[C@@H](Cc1ccccc1)NC(C)=O)C(C)C [Analog VIII, (Ac-D-Phe^1,D-Ala^6,Leu^8,N(Me)Δ^Z Phe^9) litorin-OMe] (Ac-[dF]QWAV[dA]HL[X1]-OMe)
Agonist: +
Antagonist: -
Agonist/antagonist character in words (text under Table 1): agonist
